{"source": "PubChem BioAssay AID1347423", "about": "(Functional Genomics Laboratory (NCATS/FGL), 2020)", "note": "The whole screen tested about 52,000 sequences, of which about 210 (0.4%) were called active.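 How the source made its calls: active means gene whose silencing raises cell survival under the drug, median off-target-corrected z-score across its silencing RNAs 2 or more; inactive means the rest.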 The list shows a part of the results."}
{"assay": "Resistance to Poly (ADP-Ribose) Polymerase inhibitor: Gene Identification via Genome-wide siRNA Screen", "conditions": "mouse BRCA2 R2336H ES cells, olaparib, CellTiter-Glo viability; active compounds read high", "outline": "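Genome-wide siRNA screen (3 siRNAs/gene, 20 nM) in mouse ES cells carrying hypomorphic BRCA2 R2336H; olaparib 500 nM added 48 h post-transfection, CellTiter-Glo viability 72 h later. Normalized to plate-median negative control; MAD z-scores, gene median, seed-adjusted.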"}
{"sequence": "GGAGGGUCUCUUUAAGUUCTT against AI325941", "z-score": "inactive: 0.197"}
{"sequence": "GGUGAGAUUACUGAAAGAATT against Plod2", "z-score": "inactive: -1.53"}
{"sequence": "GGUGCUGAGAUCGAGUAUGTT against D17Wsu104e", "z-score": "inactive: 0.87"}
{"sequence": "GGAAGGACAUAUUAUCUUGTT against Mga", "z-score": "inactive: -1.93"}
{"sequence": "GGUCUUUUUCUCUUUGCAUTT against Pcdh10", "z-score": "inactive: 0.257"}
{"sequence": "GCAAAGGCCAAAUAUGAGGTT against Dbil5", "z-score": "inactive: -0.435"}
{"sequence": "GGAGAAAAGGGUGCUGAAGTT against Csda", "z-score": "inactive: 1.21"}
{"sequence": "CGUGAAUGACCUAGCUGAGTT against Spr", "z-score": "inactive: -0.204"}
{"sequence": "CCGCCUCGUACAUGAUAUUTT against Mrgpra2", "z-score": "inactive: -0.527"}
{"sequence": "GCAAAAAUUCAACAUCCUGTT against Fbxo4", "z-score": "inactive: 1.09"}
{"sequence": "AACAGUGCUUUGUGCCAUGTT against Mageb3", "z-score": "inactive: 1.93"}
{"sequence": "CCGAGAAAUGCUAUGAAUGTT against Zfp105", "z-score": "inactive: 0.488"}
{"sequence": "GGCAACGGUGAAACUAGACTT against Sh3bp5", "z-score": "inactive: 1.41"}
{"sequence": "GCCAUGGGUCUCAGAAAGATT against Zxda", "z-score": "inactive: -2.17"}
{"sequence": "GGAUACAAGAAACCUUAAGTT against 4632413K17Rik", "z-score": "inactive: -0.248"}
{"sequence": "CGCAUUUCAUCGAAUGGAATT against Nlgn2", "z-score": "inactive: 1.23"}
{"sequence": "GGCUAAACACAGAAAGGUCTT against B930008I02Rik", "z-score": "inactive: -0.646"}
{"sequence": "CCUGUUUCGUAGAUUGUUUTT against Snrp116", "z-score": "inactive: -1.29"}
{"sequence": "GAACAAAUGAGGUCCUCAGTT against Sprr2h", "z-score": "inactive: 0.541"}
{"sequence": "GCAACGAUCUGAGAAAAUUTT against Pdzk6", "z-score": "inactive: -2.63"}
{"sequence": "GGGAUUUCUUAUCCUGAAATT against BC036333", "z-score": "inactive: -1.31"}
{"sequence": "GGCAGCACUAGGACACAUATT against 1810019A08Rik", "z-score": "inactive: 0.483"}
{"sequence": "GGCUUACUUACCACAGAAUTT against Mlycd", "z-score": "inactive: 0.637"}
{"sequence": "GCCAGGAAACGACAAUAAATT against Slc5a11", "z-score": "inactive: 0.0258"}
{"sequence": "GCGGAGCGUAUGGAUAUGATT against 3000002G13Rik", "z-score": "inactive: 0.508"}
{"sequence": "GGGAUUUCACCACAGACAGTT against Gtf2a1", "z-score": "inactive: 0.0824"}
{"sequence": "GUGGCAAGAUGUGAGACUUTT against Rpl4", "z-score": "inactive: -1.65"}
{"sequence": "GGAUGGAUUACUGAAAGUUTT against Wdr35", "z-score": "inactive: 0.0396"}
{"sequence": "CCAAGUUCAUUCUUUUUGCTT against Cobll1", "z-score": "inactive: 1.4"}
{"sequence": "GGUGCCUUUCAUUUUUAACTT against Lamp2", "z-score": "inactive: 0.427"}
{"sequence": "GGAUCCUCUUGAUCAAGCUTT against 3100002B05Rik", "z-score": "inactive: -2.03"}
{"sequence": "CCUAUAUGCCAAUCUUUCUTT against Rnf152", "z-score": "inactive: 0.476"}
{"sequence": "GGAAAACACGAGUUUCCCUTT against Arrdc4", "z-score": "inactive: -0.208"}
{"sequence": "GCCUUUGAUCUGAUGCACUTT against Adh5", "z-score": "inactive: -0.188"}
{"sequence": "GGAAAUCGAGGUUACAAGUTT against 5830446M03Rik", "z-score": "inactive: -3.18"}
{"sequence": "GGAGUUAACAAGAUGAGCGTT against Arhgap24", "z-score": "inactive: 1.34"}
{"sequence": "CCAUGCAGCAAAUCGAGUUTT against Klk5", "z-score": "inactive: -0.775"}
{"sequence": "GGAUUAUGUCAAGGUCAAATT against Ntng2", "z-score": "inactive: 0.362"}
{"sequence": "GGAGUUUUCAAUUUUGAUGTT against Il17rb", "z-score": "inactive: -0.296"}
{"sequence": "GGCAGACAGAAGAUAUUUGTT against 4933437N03Rik", "z-score": "inactive: 0.35"}
{"sequence": "GGCGCAUGCUGGAUAAACATT against D11Lgp2e", "z-score": "inactive: -1.33"}
{"sequence": "GGAAGAUUUUUCAAAGGAUTT against Itgb6", "z-score": "active: 2.51"}
{"sequence": "CCAGAACCCUAGACUUUGCTT against Wfdc6", "z-score": "inactive: -1.51"}
{"sequence": "GCCGUGAAAUACAGCGUAATT against C730015A04Rik", "z-score": "inactive: -0.846"}
{"sequence": "GGACAUGGUGUUGUGCUAUTT against Myt1l", "z-score": "inactive: 0.813"}
{"sequence": "GCCCUAAUCUAUGGGACAUTT against AI839735", "z-score": "inactive: 0.301"}
{"sequence": "GCUACCAUGAGAUUUCUAATT against Dido1", "z-score": "inactive: -1.38"}
{"sequence": "GGAGCUCUACAUCAUAGACTT against Lhx1", "z-score": "inactive: -0.0389"}
{"sequence": "GCCUAACAAUAGUGGAAUUTT against 1700060E18Rik", "z-score": "inactive: -2.22"}
{"sequence": "GGAGCUAAAUGGCUCUGAUTT against Boc", "z-score": "inactive: 0.96"}
{"sequence": "GGAGAAUGCUUUCAUUGUATT against 2810410L24Rik", "z-score": "inactive: -1.39"}
{"sequence": "GGAACUGUUUCUCUUUCCUTT against Rad9", "z-score": "inactive: -1.17"}
{"sequence": "AUUGGCAGUUAAGGACCGATT against Noto", "z-score": "inactive: 1.52"}
{"sequence": "CCACUAACGAUGCAAAAAATT against Mep1a", "z-score": "inactive: 0.127"}
{"sequence": "GGAACAAGAGAGGACAAGUTT against Papss2", "z-score": "inactive: -0.38"}
{"sequence": "GGAUCUUACUAUCACCAGCTT against Foxf1a", "z-score": "inactive: 0.202"}
{"sequence": "CCCAAUGUAUUCUACCUACTT against Cast", "z-score": "inactive: 1.09"}
{"sequence": "GGAGCAAGUAUUUACAUUGTT against Psmd10", "z-score": "inactive: 0.0646"}
{"sequence": "GGAUUCUUCAUCCCUAAAUTT against 4930470P17Rik", "z-score": "inactive: -0.289"}
{"sequence": "CGCAGCGACCAGCUUUCAATT against Srebf2", "z-score": "inactive: 1.46"}
{"sequence": "GCUGCUGUGACUUAGAUAATT against Cds2", "z-score": "inactive: -1.49"}
{"sequence": "GCAAACAAGGUCCUAGUCUTT against 4930465P12Rik", "z-score": "inactive: 0.488"}
{"sequence": "GGUCUUCGACACCAUUAACTT against 2510001I10Rik", "z-score": "inactive: 0.94"}
{"sequence": "GCAUUUCAGCAGAACAAUATT against Phldb1", "z-score": "inactive: -0.557"}
{"sequence": "GCUGUGAGCGGUGUAAGAATT against Usp20", "z-score": "inactive: -2.54"}
{"sequence": "GGAAAGAUCUCCUAAAAUUTT against Lrp6", "z-score": "inactive: 0.0588"}
{"sequence": "GCGCUUACCGAACAACUGATT against Tmprss13", "z-score": "inactive: -0.00577"}
{"sequence": "GGGAAGCACAAGGUUUAGUTT against Brca1", "z-score": "inactive: -0.121"}
{"sequence": "CCCAUGCUAUCAAUCAUUUTT against Olfr308", "z-score": "inactive: 1.26"}
{"sequence": "GGAAACACUGAAAAAGAAUTT against Casp2", "z-score": "inactive: -0.932"}
{"sequence": "GGAAAACCUUUUCAGCUUCTT against Nelf", "z-score": "inactive: 0.62"}
{"sequence": "GGCCCUAAUGCAUGUGUACTT against Gp9", "z-score": "inactive: 0.703"}
{"sequence": "GGAAUUAUAAAAGACCACGTT against Kctd12b", "z-score": "inactive: 0.438"}
{"sequence": "GGAAUGGUUAGAGUUCUUUTT against Ercc2", "z-score": "inactive: -2.39"}
{"sequence": "GGAGAGUACAGACACUGAGTT against Masp2", "z-score": "inactive: 0.319"}
{"sequence": "GGAAGAUUGCAUUUUGAGATT against Akap3", "z-score": "inactive: 0.395"}
{"sequence": "CGUGGUGCCUUUGAAUCUGTT against 9530056K15Rik", "z-score": "inactive: -1.06"}
{"sequence": "GGGCCUACAUUAUUCAGCATT against 2310032F03Rik", "z-score": "inactive: 0.865"}
{"sequence": "GCAAGUAACUACCAGAGUATT against Gtl3", "z-score": "inactive: -1.4"}
{"sequence": "GGAUGACGGUAAAAUGUUUTT against Hnrpdl", "z-score": "inactive: 0.494"}
{"sequence": "GCAAUCAUUGAAUCCACUCTT against Spag9", "z-score": "inactive: -0.615"}
{"sequence": "GCAGGCAAGGUAUACUUGATT against Cbfb", "z-score": "inactive: 0.137"}
{"sequence": "GGUGUUGAUGCUGAAAACUTT against 5730405M13Rik", "z-score": "inactive: -0.453"}
{"sequence": "GCUAAGCGGAAUGCACUCGTT against Cxcl5", "z-score": "inactive: -0.844"}
{"sequence": "CCCUACAUGGAUGAGAACUTT against 1110007F05Rik", "z-score": "inactive: -0.857"}
{"sequence": "GGAUUUCCUUGGUUCUUUUTT against Mylip", "z-score": "inactive: 0.151"}
{"sequence": "GGCUUGAUUUCAACCUUGUTT against Atic", "z-score": "inactive: -0.0503"}
{"sequence": "CGACAGAGUGAAAAUUAAGTT against D12Ertd771e", "z-score": "inactive: 0.39"}
{"sequence": "GGUUUAUAGGGAAAGAUUUTT against Pde7b", "z-score": "inactive: -0.944"}
{"sequence": "GGGCUCAUGGGAAUUUCUUTT against Vill", "z-score": "inactive: -2.6"}
{"sequence": "GGCUGGCUAUAAGAAAAAATT against Mrpl35", "z-score": "inactive: 0.12"}
{"sequence": "CGGUAUUUCAUCCUGGAUATT against AA960558", "z-score": "inactive: -0.142"}
{"sequence": "GGCUAUGCAGAUGGUACCUTT against Vil1", "z-score": "inactive: -0.536"}
{"sequence": "GCAGGUUAUGGUCAUAUUUTT against 6820429M01", "z-score": "inactive: -0.257"}
{"sequence": "GCGACUGUUUCUAUCCCAATT against 1500026D16Rik", "z-score": "inactive: 1.57"}
{"sequence": "GGUAUCUACACCAAACUUATT against Klk5", "z-score": "inactive: 1.04"}
{"sequence": "GGAAUAAAGAUUCCUCACATT against Epdd1", "z-score": "inactive: -0.902"}
{"sequence": "GGCCUCUUUUGGUAUUCCATT against Zfp42", "z-score": "inactive: -0.463"}
{"sequence": "GGAAAUCAGUUUUCCUGGATT against Olfr649", "z-score": "inactive: -0.923"}
{"sequence": "CGACUUCAUGAAAUACCAATT against Ptpla", "z-score": "inactive: -0.142"}
{"sequence": "CCUACUUGUUUUGGGCUGGTT against Olfr1384", "z-score": "inactive: -0.266"}
{"sequence": "CCCAUUUGGAUUCACUAACTT against C630028F04Rik", "z-score": "inactive: 1.08"}
{"sequence": "GGAUGGAUGUUUGCAUAAATT against Msx2", "z-score": "inactive: 0.986"}
{"sequence": "GGUAAACGGCUUUUCUUAUTT against 3010021M21Rik", "z-score": "inactive: 1.33"}
